Among all 580,000 compounds or so, about 6,100 (1.1%) were called active. Inconclusive means that the source gave no clear call. Such entries were picked first, then a sample of the others. Calls follow the shape of the dose curve; as a rule, active = well fitted inhibition curve with a large enough effect; inconclusive = small, poorly fitted or top-dose-only effect, or another doubt; inactive = no such curve, though single readings can be large or run the other way. A potency beside an inconclusive call is a rough fit, not a confirmed value. Numbered stars: 1 amine (or outer) side, 2 acyl side, 3 side chain; on linkers, the order of the positions; unused ones are H or OH. Square brackets hold non-standard residues; d marks the D form. Peptide text beside a SMILES is read from it. X2 = CCC[C@@H](N[*:1])[C@H](C)C(=O)O[C@H](C(=O)[*:2])[C@@H](C)CC; X1 = CC(N[*:1])C(=O)C(C)(C)C(=O)[*:2]; NMeY = CN[C@@H](Cc1ccc(O)cc1)C(=O)O; NMeL = CN[C@@H](CC(C)C)C(=O)O; NMeV = CN[C@H](C(=O)O)C(C)C; NMeA = CN[C@@H](C)C(=O)O
molecular target: Polyunsaturated fatty acid lipoxygenase ALOX12 (Homo sapiens) (UniProt P18054); experiment: Primary qHTS assay for inhibitors of human arachidonate 12S-lipoxygenase (ALOX12): Round 2; conditions: purified 12hLO, xylenol orange hydroperoxide absorbance; activity change, negative = inhibition: at 108 µM (top of the series) unless noted
Method in brief: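 Purified human 12hLO (150 nM final) in 25 mM Hepes, 0.01% Triton X-100, pH 7.0 was preincubated 15 min at room temperature with compound. Then 40 uM arachidonic acid was added, 30 min. Hydroperoxide was read by Fe-XO absorbance ratio 573/405 nm.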
% is scaled to controls: 0 for no effect and ±100 for the full control effect; potency is read from the fitted curve at half-maximal effect.

Sequences of proteins named here, by UniProt entry; tags and fusion partners are left off. A change or cut given only in a name is not applied to a line headed by its entry.
UniProt P18054: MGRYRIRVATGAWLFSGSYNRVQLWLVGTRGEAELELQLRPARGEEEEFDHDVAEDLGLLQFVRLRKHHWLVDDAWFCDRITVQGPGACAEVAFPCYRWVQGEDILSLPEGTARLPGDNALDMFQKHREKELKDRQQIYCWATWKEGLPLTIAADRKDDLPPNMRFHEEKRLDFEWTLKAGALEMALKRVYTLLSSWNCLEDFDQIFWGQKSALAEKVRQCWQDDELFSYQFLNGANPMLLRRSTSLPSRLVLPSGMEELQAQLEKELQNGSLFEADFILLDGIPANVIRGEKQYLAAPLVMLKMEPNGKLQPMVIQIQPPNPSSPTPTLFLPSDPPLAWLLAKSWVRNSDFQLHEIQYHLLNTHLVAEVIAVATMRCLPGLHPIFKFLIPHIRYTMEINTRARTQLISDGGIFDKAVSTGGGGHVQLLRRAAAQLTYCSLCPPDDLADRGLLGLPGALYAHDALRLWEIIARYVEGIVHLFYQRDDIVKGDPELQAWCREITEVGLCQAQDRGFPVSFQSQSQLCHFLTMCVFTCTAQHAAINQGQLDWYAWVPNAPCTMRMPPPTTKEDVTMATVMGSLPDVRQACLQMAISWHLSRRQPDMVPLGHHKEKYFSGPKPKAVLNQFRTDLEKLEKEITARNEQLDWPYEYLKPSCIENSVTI

Compound	Potency	activity change, negative = inhibition
CC1=CC(C)C(C[N+]2(C)CCCCC2)C(C)C1 (stereo unspecified)	inconclusive: 79.4 µM [inhibitor, partial curve, poor fit]	–
CCOC(=O)c1cnc2ccc(OCC)cc2c1Nc1cc(C)ccc1OC	inactive	–
Nc1cc2[nH]c(=O)c3ccccc3c2cc1Br	inactive	–
CC(=O)Nc1ccc(S(=O)(=O)NCc2ccc3c(c2)cc(C)n3C)cc1	inconclusive: 89.1 µM [inhibitor, partial curve, poor fit]	–
CN(C)c1ccc(NC(=O)Nc2ccc3c(c2)c(=O)n(C)n3Cc2ccc(Cl)cc2)cc1	inconclusive: 50.1 µM [inhibitor, partial curve, poor fit]	–
Cc1ccc(NC(=O)N2CCC(n3cnnc3C3CC3)C2)c(Cl)c1 (stereo unspecified)	inconclusive: 14.1 µM [inhibitor, full curve, poor fit]	–
COC(=O)c1c(NC(=O)c2c(OC)cccc2OC)sc2c1CCCC2	inconclusive: 50.1 µM [inhibitor, partial curve, poor fit]	–
CCOC(=O)CC1COCCN1C(=O)c1cn(Cc2ccc(F)cc2Cl)nn1 (stereo unspecified)	inactive	–
Clc1ccc(COc2cccc(CNCc3ccncc3)c2)cc1	inconclusive: 44.7 µM [inhibitor, partial curve, poor fit]	–
O=C1Cc2cc(S(=O)(=O)N3CCN(C(=O)Nc4ccc(F)cc4)CC3)ccc2N1	inconclusive: 100 µM [inhibitor, single point]	–
FC(F)(F)c1cccc(N2CCCCC2)c1	inactive	–
O=C(O)CCNc1cc2ccccc2cc1C(=O)O	inconclusive: 11.2 µM [inhibitor, full curve, poor fit]	–
COCCNC(=O)CCCN1C(=O)COc2ccc(C(=O)COc3ccccc3Cl)cc21	inactive	–
O=C(Nc1sc2c(c1C(=O)NC1CC1)CCCCCC2)c1ccco1	inconclusive: 20 µM [inhibitor, full curve]	–
O=C(c1ccc(Cl)c(Cl)c1)N1CCC(=O)N(C(CO)Cc2ccccc2)CC1 (stereo unspecified)	inactive	–
O=C1CN(C(=O)Cn2ccc3c(Br)cccc32)CCN1	inconclusive: 50.1 µM [inhibitor, partial curve, poor fit]	–
Cc1cc(Cl)c2oc(C(=O)N(C)CC3CCOCC3)c(C)c2c1	inactive	–
Cc1cc(C(=O)OCC(=O)c2ccc(Br)s2)no1	inactive	–
O=C(COC(=O)C1(c2ccc(F)cc2)CCCC1)Nc1cc([N+](=O)[O-])ccc1F	inconclusive: 31.6 µM [inhibitor, single point]	–
CSc1ccc(NC(=O)NCCN2CCc3ccccc3C2)cc1	inconclusive: 39.8 µM [inhibitor, partial curve, poor fit]	–
NC[C@H]1O[C@H](O[C@H]2[C@@H](O)[C@@H](O[C@H]3O[C@H](CO)[C@@H](O)[C@H](N)[C@@H]3O)[C@H](N)C[C@@H]2N)[C@H](N)C[C@H]1O	inconclusive: 6.11 µM [inhibitor, partial curve, poor fit]	–
COc1cc(/C=C(\C#N)C(=O)c2ccc(O)c(O)c2)cc(I)c1O	inconclusive: 12.6 µM [inhibitor, full curve, poor fit]	–

Molecules shown so far that have a furan ring, fused or not, in the order listed:
Compound	Potency	activity change, negative = inhibition
O=C(Nc1sc2c(c1C(=O)NC1CC1)CCCCCC2)c1ccco1	inconclusive: 20 µM [inhibitor, full curve]	–
Cc1cc(Cl)c2oc(C(=O)N(C)CC3CCOCC3)c(C)c2c1	inactive	–

The list continues:

Compound	Potency	activity change, negative = inhibition
Cc1ccc2c(c1)cc(C(=O)NCCOc1ccc(Cl)cc1)n2C	inconclusive: 7.08 µM [inhibitor, full curve, poor fit]	–
Cn1c(=O)c2c(ncn2CC(=O)N2CCCC(Cc3nc(C4CCOCC4)no3)C2)n(C)c1=O (stereo unspecified)	inconclusive: 28.2 µM [inhibitor, partial curve, poor fit]	–
CCN(CC)C(CNS(=O)(=O)c1ccc(C)cc1)c1ccsc1 (stereo unspecified)	inconclusive: 44.7 µM [inhibitor, partial curve, poor fit]	–
CCOC(=O)C1=C(C)NC(=O)CC1C(=O)Nc1cc(Cl)cc(Cl)c1 (stereo unspecified)	active: 15.8 µM	–
COc1ccc(-c2cc3ccc(OCCN4CCN(CCO)CC4)cc3oc2=O)cc1OC	inconclusive: 15.8 µM [inhibitor, full curve]	–
COc1cc(=O)n2c(c1C(=O)Nc1ccc(C)cc1)CCCC2	inactive	–
COc1ccc(Br)cc1S(=O)(=O)NCCN(C)C	inactive	–
COc1ccc(O)c(CN2CC3CCC(CC3)C2)c1	inconclusive: 56.2 µM [inhibitor, partial curve, poor fit]	–
CN(C)CCNC(=O)c1onc(CSc2ccc(F)c(F)c2)c1C(=O)NCCN(C)C	inactive	–
CCCCc1ccc(NC(=O)c2nn(CC)c(=O)c3ccccc23)cc1	inactive	–
O=C(COc1ccc(Cl)cc1Cl)N/N=C/c1ccc[nH]1	inactive	–
CCC(C(=O)NC1CCCC1)N(C(=O)c1snc(C(N)=O)c1N)c1ccc(OC)c(OC)c1 (stereo unspecified)	inactive	–
CC(NC(=O)C(Cc1ccccc1)=NO)c1ccccc1 (stereo unspecified)	inconclusive: 56.2 µM [inhibitor, partial curve, poor fit]	–
Cc1ccc(C)c(/C(O)=C2/C(=O)C(=O)N(CCN3CCOCC3)C2c2ccc(C)o2)c1 (stereo unspecified)	inconclusive: 22.4 µM [inhibitor, partial curve, poor fit]	–
O=[N+]([O-])c1cccc(C2NCC(c3ccccc3Cl)c3c2[nH]c2ccccc32)c1 (stereo unspecified)	inactive	–
CCN1CCC(NC(=O)c2ccc(S(=O)(=O)Nc3ccccc3)cc2)CC1	inconclusive: 100 µM [inhibitor, single point]	–
CCCCCCCC[n+]1cccc2c3ccccc3ccc21	inconclusive: 50.1 µM [inhibitor, partial curve, poor fit]	–
CCOc1ccc(NS(=O)(=O)c2cc(Cl)ccc2OC)cc1	inconclusive: 126 µM [inhibitor, single point]	–
Cc1cc(C(=O)CSCCCn2c(=O)[nH]c3ccccc32)c(C)n1C	inconclusive: 112 µM [inhibitor, partial curve, poor fit]	–
CCOC(=O)c1c(-c2ccc(N(C)C)cc2)oc2c1C(OC)CC2 (stereo unspecified)	inconclusive: 50.1 µM [inhibitor, partial curve, poor fit]	–
O=C(NC(=S)Nc1ncccn1)c1ccc(F)cc1	inconclusive: 39.8 µM [inhibitor, partial curve, poor fit]	–
Cc1ccccc1NC(=S)NCCSc1ccc(Cl)cc1	active: 44.7 µM	–

Compound	Potency	activity change, negative = inhibition
COc1ccc(C(=O)NC(C)c2nnc(SCC(=O)NC3=NCCS3)n2C)cc1 (stereo unspecified)	inconclusive: 44.7 µM [inhibitor, partial curve, poor fit]	–
O=C(OCC(=O)N1CCN(S(=O)(=O)c2ccc(Cl)cc2)CC1)C1CCC1	inactive	–
CC(=O)NC1(C)CCN(Cc2ccccc2-c2ccc3ccccc3c2)C1 (stereo unspecified)	active: 31.6 µM	–
Cc1cc(C)cc(NC(=O)CN(C)S(=O)(=O)c2ccc3c(c2)CCC(=O)N3)c1	inconclusive: 20 µM [inhibitor, partial curve]	–
CC1CC(C)CN(C(=O)c2cn(C)c3ccc(S(=O)(=O)N(C)C)cc3c2=O)C1 (stereo unspecified)	inactive	–
C/C=C/c1ccc2c(c1)O[C@@H](CN(C)C(=O)c1ccc(F)cc1)[C@@H](C)CN([C@H](C)CO)S2(=O)=O	inconclusive: 89.1 µM [inhibitor, single point]	–
Cc1cccc(C(=O)Nc2sc3c(c2C(=O)O)CCCC3)c1	inactive	–
Cc1ccc(NC(=S)N(CCN(C)C)Cc2cc3cc(C)ccc3[nH]c2=O)cc1	inconclusive: 50.1 µM [inhibitor, partial curve, poor fit]	–
Cn1cccc1CC(=O)N/N=C/c1ccc([N+](=O)[O-])cc1	inconclusive: 100 µM [inhibitor, single point]	–
C#CCNC(=O)C1=C[C@@H](c2ccccc2)[C@H](CCCO)[C@@H](OCC)O1	inconclusive: 100 µM [inhibitor, single point]	–
O=C(Nc1ccc(C(=O)N(Cc2ccccc2)C2CC2)cc1)c1cccs1	inactive	–
O=C1NCCCCCN(C(=O)c2ccco2)[C@@H]2C[C@@H](C(=O)N3CCc4ccccc4C3)C[C@H]12	inconclusive: 25.1 µM [inhibitor, full curve]	–
Cc1ccsc1CN(C)c1ncnc2ccc(-c3ccoc3)cc12	inconclusive: 35.5 µM [inhibitor, partial curve]	–
CCC[C@H]1NC(=O)[C@H](C)N(C)C(=O)C(C)(C)C(=O)C(C)NC(=O)[C@H](Cc2ccc(OC)cc2)N(C)C(=O)[C@H](C(C)C)N(C)C(=O)CNC(=O)[C@H](CC(C)C)N(C)C(=O)CNC(=O)[C@H]([C@@H](C)CC)OC(=O)[C@H]1C (stereo partly specified) (cyclo(G[NMeL]G[NMeV][NMeY](Me)[X1][NMeA][X2]))	inconclusive: 35.5 µM [inhibitor, partial curve, poor fit]	–
CC(C)(C)OC(=O)[C@H](CCCCN)NC(=O)c1nc[nH]c1C(=O)N[C@@H](CCCCN)C(=O)OC(C)(C)C	inactive	–
O=C(O)CSc1ccccc1C(=O)O	inconclusive: 6.31 µM [inhibitor, full curve, poor fit]	–
O=C(NCC(=O)N1CCCC1)c1ccc(Br)cc1	inconclusive: 63.1 µM [inhibitor, partial curve, poor fit]	–
Cc1ccccc1-n1ncc2c1CC(C)(C)CC2NC(=O)c1ccncc1 (stereo unspecified)	inactive	–
COc1ccc(NC(=O)c2cc(=O)c3cc(Cl)ccc3o2)cc1Cl	–	inconclusive: -59.5% [inhibitor]
COc1cc(-c2ccc(C)cc2)nc2ccc(C(=O)N3CCC(C(N)=O)CC3)cc12	inactive	–
COc1ccc(-n2c(SCC(=O)NCC3CCCO3)nc3ccccc3c2=O)cc1Cl (stereo unspecified)	inactive	–
CCOC(=O)C(CC)Sc1nnc2[nH]c(=O)cc(C)n12 (stereo unspecified)	inconclusive: 63.1 µM [inhibitor, partial curve, poor fit]	–

Full records as entered above:
COc1ccc(-n2c(SCC(=O)NCC3CCCO3)nc3ccccc3c2=O)cc1Cl (stereo unspecified) as listed: Potency: inactive
Cc1ccc(C)c(/C(O)=C2/C(=O)C(=O)N(CCN3CCOCC3)C2c2ccc(C)o2)c1 (stereo unspecified) as listed: Potency: inconclusive: 22.4 µM [inhibitor, partial curve, poor fit]
CCN1CCC(NC(=O)c2ccc(S(=O)(=O)Nc3ccccc3)cc2)CC1 as listed: Potency: inconclusive: 100 µM [inhibitor, single point]

From PubChem BioAssay AID1671190 (National Center for Advancing Translational Sciences (NCATS), 2021)
